Among the data in PMC10313471 are binding values, retold here.

Protein sequences, listed by entry. Tags and fused reporters are not part of them. Residues count along the entry.
UniProt P17931: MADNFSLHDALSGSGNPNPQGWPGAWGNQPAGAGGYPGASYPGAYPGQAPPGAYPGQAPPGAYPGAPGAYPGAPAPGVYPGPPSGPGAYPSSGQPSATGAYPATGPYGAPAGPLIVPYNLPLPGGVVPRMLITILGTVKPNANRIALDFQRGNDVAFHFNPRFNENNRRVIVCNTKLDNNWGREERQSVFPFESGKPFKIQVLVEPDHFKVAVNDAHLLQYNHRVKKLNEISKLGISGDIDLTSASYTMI
UniProt P24043, residues 23-3122: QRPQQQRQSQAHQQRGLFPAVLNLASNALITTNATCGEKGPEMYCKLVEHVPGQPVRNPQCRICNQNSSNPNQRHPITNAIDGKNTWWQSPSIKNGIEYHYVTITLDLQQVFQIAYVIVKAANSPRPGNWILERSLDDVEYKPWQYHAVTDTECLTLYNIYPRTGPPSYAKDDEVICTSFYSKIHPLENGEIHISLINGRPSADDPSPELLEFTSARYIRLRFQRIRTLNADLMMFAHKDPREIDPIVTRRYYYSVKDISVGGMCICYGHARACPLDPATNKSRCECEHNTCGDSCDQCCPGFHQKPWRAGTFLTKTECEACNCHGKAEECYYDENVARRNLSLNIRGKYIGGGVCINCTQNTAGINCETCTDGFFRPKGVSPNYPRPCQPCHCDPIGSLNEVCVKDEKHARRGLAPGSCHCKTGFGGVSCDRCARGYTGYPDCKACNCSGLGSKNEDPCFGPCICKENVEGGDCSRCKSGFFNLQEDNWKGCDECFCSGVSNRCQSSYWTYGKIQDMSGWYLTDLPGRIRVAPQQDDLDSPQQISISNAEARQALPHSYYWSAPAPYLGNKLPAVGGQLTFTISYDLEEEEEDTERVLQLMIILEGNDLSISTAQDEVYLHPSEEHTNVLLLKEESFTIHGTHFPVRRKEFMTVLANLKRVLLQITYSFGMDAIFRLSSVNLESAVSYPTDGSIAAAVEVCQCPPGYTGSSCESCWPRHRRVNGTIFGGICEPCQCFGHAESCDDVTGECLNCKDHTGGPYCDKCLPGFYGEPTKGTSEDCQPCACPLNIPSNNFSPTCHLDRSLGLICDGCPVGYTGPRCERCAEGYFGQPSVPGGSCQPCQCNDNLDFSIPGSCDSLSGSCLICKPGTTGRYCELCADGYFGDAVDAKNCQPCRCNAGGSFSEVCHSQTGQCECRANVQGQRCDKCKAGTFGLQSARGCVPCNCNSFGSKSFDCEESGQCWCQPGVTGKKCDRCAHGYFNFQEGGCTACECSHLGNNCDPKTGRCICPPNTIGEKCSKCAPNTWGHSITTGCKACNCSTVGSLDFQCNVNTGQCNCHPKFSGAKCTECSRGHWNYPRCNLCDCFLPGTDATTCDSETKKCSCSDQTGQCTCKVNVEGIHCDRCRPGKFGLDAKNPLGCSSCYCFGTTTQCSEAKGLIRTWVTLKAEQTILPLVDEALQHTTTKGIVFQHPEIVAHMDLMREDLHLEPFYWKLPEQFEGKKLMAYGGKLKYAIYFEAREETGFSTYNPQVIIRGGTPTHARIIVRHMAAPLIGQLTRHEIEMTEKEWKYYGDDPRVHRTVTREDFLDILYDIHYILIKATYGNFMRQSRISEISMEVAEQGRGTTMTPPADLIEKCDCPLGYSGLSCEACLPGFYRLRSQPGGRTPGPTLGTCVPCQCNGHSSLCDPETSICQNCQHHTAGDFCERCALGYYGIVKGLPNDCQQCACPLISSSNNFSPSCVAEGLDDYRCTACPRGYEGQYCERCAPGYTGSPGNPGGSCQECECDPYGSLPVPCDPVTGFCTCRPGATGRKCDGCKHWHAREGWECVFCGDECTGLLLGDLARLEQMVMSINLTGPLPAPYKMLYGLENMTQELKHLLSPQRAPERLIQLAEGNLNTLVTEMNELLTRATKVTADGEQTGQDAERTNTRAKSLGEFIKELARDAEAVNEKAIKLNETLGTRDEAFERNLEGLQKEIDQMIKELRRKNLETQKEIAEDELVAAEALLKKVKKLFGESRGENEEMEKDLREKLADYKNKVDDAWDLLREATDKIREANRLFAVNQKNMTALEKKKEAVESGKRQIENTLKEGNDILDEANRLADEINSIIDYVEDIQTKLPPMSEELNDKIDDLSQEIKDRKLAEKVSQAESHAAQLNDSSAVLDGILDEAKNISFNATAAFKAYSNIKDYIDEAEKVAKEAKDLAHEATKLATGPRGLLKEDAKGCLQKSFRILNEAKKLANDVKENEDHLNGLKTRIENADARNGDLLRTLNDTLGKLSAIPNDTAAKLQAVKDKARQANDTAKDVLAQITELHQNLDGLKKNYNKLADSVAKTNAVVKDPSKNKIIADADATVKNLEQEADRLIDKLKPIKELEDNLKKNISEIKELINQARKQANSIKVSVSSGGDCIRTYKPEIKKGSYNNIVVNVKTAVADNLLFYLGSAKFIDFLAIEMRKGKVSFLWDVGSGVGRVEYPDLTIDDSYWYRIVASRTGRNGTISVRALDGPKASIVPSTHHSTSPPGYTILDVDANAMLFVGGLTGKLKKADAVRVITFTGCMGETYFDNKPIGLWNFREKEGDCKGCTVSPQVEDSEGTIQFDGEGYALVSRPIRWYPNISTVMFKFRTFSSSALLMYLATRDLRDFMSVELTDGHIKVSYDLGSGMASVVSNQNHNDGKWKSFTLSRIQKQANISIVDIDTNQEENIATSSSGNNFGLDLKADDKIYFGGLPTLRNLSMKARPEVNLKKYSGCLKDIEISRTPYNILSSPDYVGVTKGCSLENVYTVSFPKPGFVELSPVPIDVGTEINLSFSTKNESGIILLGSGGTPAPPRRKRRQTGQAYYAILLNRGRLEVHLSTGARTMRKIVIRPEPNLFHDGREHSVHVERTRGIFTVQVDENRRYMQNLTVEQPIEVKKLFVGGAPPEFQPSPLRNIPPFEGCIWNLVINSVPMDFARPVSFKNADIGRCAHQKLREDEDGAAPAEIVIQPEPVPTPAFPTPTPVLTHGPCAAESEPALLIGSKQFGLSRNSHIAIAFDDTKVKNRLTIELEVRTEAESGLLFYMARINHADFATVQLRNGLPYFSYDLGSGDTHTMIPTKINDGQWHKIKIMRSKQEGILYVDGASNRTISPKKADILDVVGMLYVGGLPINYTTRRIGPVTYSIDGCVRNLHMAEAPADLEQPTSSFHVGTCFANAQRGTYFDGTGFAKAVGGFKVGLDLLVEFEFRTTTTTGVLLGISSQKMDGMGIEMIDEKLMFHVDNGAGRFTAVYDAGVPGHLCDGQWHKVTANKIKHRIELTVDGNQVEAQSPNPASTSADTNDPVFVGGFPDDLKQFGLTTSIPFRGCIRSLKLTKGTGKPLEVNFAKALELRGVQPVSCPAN

No constants are given. Whether binding was seen depends on the method and setting. In cells and extracts the contact can be indirect. Some entries that bind do so weakly or less than the wild type.

The assay concerns the target galectin-3, endogenous in BMP7-induced human cementoblast-like cells (human (endogenous in hPDLCs)) (UniProt P17931). Description: co-IP; anti-galectin-3 immunoprecipitation from extracts of cementoblast-like cells, blot with anti-LAMA2; no GB1107.

Turning to “laminin α2 (from UniProt P24043 23-3122)”, the binding result is listed as “binds”.
